Record: PubChem BioAssay AID1508597 (Cure First, 2020)
Here is one part, drawn at random, of about 2,100 reagents tested. 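Calls flag viability under 80% in either arm, not effects specific to rucaparib; the reference for percent is not stated.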 Entries without a mark were called inactive. Some reagents were tested in more than one well and are listed for each. The record does not give: the 100% reference.

Test: 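Survival screen with siRNA in ovarian cancer cells derived from patients, with or without rucaparib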 (primary screen)
Cell system: human ovarian carcinoma lines grown from tumours: OCI-P5x (papillary serous) and OCI-C5x (clear cell)
Reagents: siRNA pool against human genes, 1.25 pmol siRNA per well
Time to read-out: 72 h or 96 h, depending on the cell culture
Treatment: rucaparib 20 µM (about IC30) or vehicle, present until read-out
Read-out: 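Luminescent ATP-based viability assay read 72 or 96 h after transfection, depending on culture, given as normalised percent viability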
Reading the numbers: viability, normalised: higher = more viable cells remaining
Call rule: 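a well counts as a hit if its normalised viability is under 80 percent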
Meaning of the calls: active = viability under 80%; inactive = viability 80% or more

gene symbol	rucaparib or vehicle	cell line	technical replicate	viability, normalised (%)
GTF2H5	Rucaparib	OCI-C5x (clear cell)	1	68.8 (active)
GTF2H5	Rucaparib	OCI-C5x (clear cell)	2	58.1 (active)
GTF2H5	Rucaparib	OCI-C5x (clear cell)	3	56 (active)
GTF2H5	Rucaparib	OCI-P5x (serous)	1	77.8 (active)
GTF2H5	Rucaparib	OCI-P5x (serous)	2	110
GTF2H5	Rucaparib	OCI-P5x (serous)	3	70.5 (active)
GTF2H5	Vehicle	OCI-C5x (clear cell)	1	53.4 (active)
GTF2H5	Vehicle	OCI-C5x (clear cell)	2	50.3 (active)
GTF2H5	Vehicle	OCI-C5x (clear cell)	3	44.1 (active)
GTF2H5	Vehicle	OCI-P5x (serous)	1	71.3 (active)
GTF2H5	Vehicle	OCI-P5x (serous)	2	69.3 (active)
GTF2H5	Vehicle	OCI-P5x (serous)	3	76 (active)
SIN3B	Rucaparib	OCI-C5x (clear cell)	1	30.1 (active)
SIN3B	Rucaparib	OCI-C5x (clear cell)	2	32.5 (active)
SIN3B	Rucaparib	OCI-C5x (clear cell)	3	29.3 (active)
SIN3B	Rucaparib	OCI-P5x (serous)	1	54.2 (active)
SIN3B	Rucaparib	OCI-P5x (serous)	2	58.5 (active)
SIN3B	Rucaparib	OCI-P5x (serous)	3	53.4 (active)
SIN3B	Vehicle	OCI-C5x (clear cell)	1	28.4 (active)
SIN3B	Vehicle	OCI-C5x (clear cell)	2	27.5 (active)
SIN3B	Vehicle	OCI-C5x (clear cell)	3	31.4 (active)
SIN3B	Vehicle	OCI-P5x (serous)	1	52.6 (active)
SIN3B	Vehicle	OCI-P5x (serous)	2	53.8 (active)
SIN3B	Vehicle	OCI-P5x (serous)	3	63.9 (active)
POLE3	Rucaparib	OCI-C5x (clear cell)	1	39.1 (active)
POLE3	Rucaparib	OCI-C5x (clear cell)	2	45.5 (active)
POLE3	Rucaparib	OCI-C5x (clear cell)	3	32.2 (active)
POLE3	Rucaparib	OCI-P5x (serous)	1	52 (active)
POLE3	Rucaparib	OCI-P5x (serous)	2	47.5 (active)
POLE3	Rucaparib	OCI-P5x (serous)	3	46 (active)
POLE3	Vehicle	OCI-C5x (clear cell)	1	35.3 (active)
POLE3	Vehicle	OCI-C5x (clear cell)	2	35 (active)
POLE3	Vehicle	OCI-C5x (clear cell)	3	39.3 (active)
POLE3	Vehicle	OCI-P5x (serous)	1	51.3 (active)
POLE3	Vehicle	OCI-P5x (serous)	2	59.8 (active)
POLE3	Vehicle	OCI-P5x (serous)	3	55.9 (active)
MBTD1	Rucaparib	OCI-C5x (clear cell)	1	34.2 (active)
MBTD1	Rucaparib	OCI-C5x (clear cell)	2	28.7 (active)
MBTD1	Rucaparib	OCI-C5x (clear cell)	3	41.3 (active)
MBTD1	Rucaparib	OCI-P5x (serous)	1	39.2 (active)
MBTD1	Rucaparib	OCI-P5x (serous)	2	40.9 (active)
MBTD1	Rucaparib	OCI-P5x (serous)	3	50.5 (active)
MBTD1	Vehicle	OCI-C5x (clear cell)	1	45.2 (active)
MBTD1	Vehicle	OCI-C5x (clear cell)	2	35.6 (active)
MBTD1	Vehicle	OCI-C5x (clear cell)	3	45.4 (active)
MBTD1	Vehicle	OCI-P5x (serous)	1	54.7 (active)
MBTD1	Vehicle	OCI-P5x (serous)	2	67.6 (active)
MBTD1	Vehicle	OCI-P5x (serous)	3	58.3 (active)
CHAF1A	Rucaparib	OCI-C5x (clear cell)	1	55.3 (active)
CHAF1A	Rucaparib	OCI-C5x (clear cell)	1	40.6 (active)
CHAF1A	Rucaparib	OCI-C5x (clear cell)	2	31.9 (active)
CHAF1A	Rucaparib	OCI-C5x (clear cell)	2	47.6 (active)
CHAF1A	Rucaparib	OCI-C5x (clear cell)	3	51.7 (active)
CHAF1A	Rucaparib	OCI-C5x (clear cell)	3	44.2 (active)
CHAF1A	Rucaparib	OCI-P5x (serous)	1	76.5 (active)
CHAF1A	Rucaparib	OCI-P5x (serous)	1	61.3 (active)
CHAF1A	Rucaparib	OCI-P5x (serous)	2	60.1 (active)
CHAF1A	Rucaparib	OCI-P5x (serous)	2	79.2 (active)
CHAF1A	Rucaparib	OCI-P5x (serous)	3	54.1 (active)
CHAF1A	Rucaparib	OCI-P5x (serous)	3	56.7 (active)
CHAF1A	Vehicle	OCI-C5x (clear cell)	1	49.9 (active)
CHAF1A	Vehicle	OCI-C5x (clear cell)	1	33.6 (active)
CHAF1A	Vehicle	OCI-C5x (clear cell)	2	42.2 (active)
CHAF1A	Vehicle	OCI-C5x (clear cell)	2	37.3 (active)
CHAF1A	Vehicle	OCI-C5x (clear cell)	3	48.1 (active)
CHAF1A	Vehicle	OCI-C5x (clear cell)	3	27.3 (active)
CHAF1A	Vehicle	OCI-P5x (serous)	1	60 (active)
CHAF1A	Vehicle	OCI-P5x (serous)	1	66.8 (active)
CHAF1A	Vehicle	OCI-P5x (serous)	2	72.2 (active)
CHAF1A	Vehicle	OCI-P5x (serous)	2	67.9 (active)
CHAF1A	Vehicle	OCI-P5x (serous)	3	61.5 (active)
CHAF1A	Vehicle	OCI-P5x (serous)	3	115

A portion of the results above:
gene symbol	rucaparib or vehicle	cell line	technical replicate	viability, normalised (%)
SIN3B	Rucaparib	OCI-C5x (clear cell)	1	30.1 (active)
SIN3B	Rucaparib	OCI-C5x (clear cell)	2	32.5 (active)
SIN3B	Rucaparib	OCI-C5x (clear cell)	3	29.3 (active)
SIN3B	Rucaparib	OCI-P5x (serous)	1	54.2 (active)
SIN3B	Rucaparib	OCI-P5x (serous)	2	58.5 (active)
SIN3B	Rucaparib	OCI-P5x (serous)	3	53.4 (active)
SIN3B	Vehicle	OCI-C5x (clear cell)	1	28.4 (active)
SIN3B	Vehicle	OCI-C5x (clear cell)	2	27.5 (active)
SIN3B	Vehicle	OCI-C5x (clear cell)	3	31.4 (active)
SIN3B	Vehicle	OCI-P5x (serous)	1	52.6 (active)
